This note sets out measurements from ChEMBL document CHEMBL5210121, “Affinity On-target Cellular Literature for EUbOPEN Chemogenomics Library wave 3” (2023).

The target of this experiment is T1, Tyrosine-protein kinase JAK3 (Homo sapiens, UniProt P52333).
T1 sequence (P52333 whole entry): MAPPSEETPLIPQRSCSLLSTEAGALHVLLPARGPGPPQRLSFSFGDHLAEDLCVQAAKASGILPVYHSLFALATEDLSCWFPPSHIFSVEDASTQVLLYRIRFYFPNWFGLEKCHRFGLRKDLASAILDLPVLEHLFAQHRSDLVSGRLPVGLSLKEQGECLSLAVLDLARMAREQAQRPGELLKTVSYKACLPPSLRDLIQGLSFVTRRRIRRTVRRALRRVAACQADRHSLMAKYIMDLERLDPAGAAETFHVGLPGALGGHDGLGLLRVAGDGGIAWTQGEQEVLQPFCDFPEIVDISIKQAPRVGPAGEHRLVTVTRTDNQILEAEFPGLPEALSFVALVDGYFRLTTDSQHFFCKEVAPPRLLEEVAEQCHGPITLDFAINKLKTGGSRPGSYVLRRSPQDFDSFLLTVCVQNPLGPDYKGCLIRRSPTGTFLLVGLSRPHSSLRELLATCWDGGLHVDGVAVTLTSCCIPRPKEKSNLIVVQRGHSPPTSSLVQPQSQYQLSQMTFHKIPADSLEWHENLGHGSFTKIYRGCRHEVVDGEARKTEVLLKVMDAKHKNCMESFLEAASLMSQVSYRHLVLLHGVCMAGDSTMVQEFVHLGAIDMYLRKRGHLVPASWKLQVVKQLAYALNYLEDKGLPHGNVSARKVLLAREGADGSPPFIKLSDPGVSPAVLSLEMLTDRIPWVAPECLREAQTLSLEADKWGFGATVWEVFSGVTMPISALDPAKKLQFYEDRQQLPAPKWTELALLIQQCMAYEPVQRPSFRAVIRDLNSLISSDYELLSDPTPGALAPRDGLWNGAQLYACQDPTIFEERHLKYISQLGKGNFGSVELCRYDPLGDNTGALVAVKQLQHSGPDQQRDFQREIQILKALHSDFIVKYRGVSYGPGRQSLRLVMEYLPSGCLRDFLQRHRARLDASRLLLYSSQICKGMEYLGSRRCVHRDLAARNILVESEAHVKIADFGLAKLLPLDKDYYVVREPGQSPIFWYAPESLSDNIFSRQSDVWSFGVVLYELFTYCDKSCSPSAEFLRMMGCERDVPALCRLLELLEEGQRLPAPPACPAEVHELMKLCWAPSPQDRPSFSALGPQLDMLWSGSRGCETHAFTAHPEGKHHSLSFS

For orientation: IC50 means the point on the concentration scale where inhibition reaches its midpoint. Read a high IC50 as weaker potency in that assay. Turning to `CN(C)C(=O)/C(C#N)=C/c1ccc(-c2nc3cnc4[nH]ccc4c3n2C2CCCCC2)o1`, inhibition was half-maximal at 100 nM (IC50).
